Measurements taken from article doi:10.1101/431494.
No constants are given. Whether binding was seen depends on the method and setting. Some results given as binding are weak or reduced against the parent protein; the word gives no strength. Tags and fused reporters may be left off the sequences shown. Each block holds one binder with its values, some of them ahead of it.

Key:
Test in all cases: SDS-PAGE
[1] = target: Rhodospirillum rubrum encapsulated ferritin, hexahistidine-tagged variant (Rhodospirillum rubrum) (UniProt Q2RVS1)
[2] = target: Rhodospirillum rubrum encapsulated ferritin, Strep-tagged variant (Rhodospirillum rubrum) (UniProt Q2RVS1)
[3] = target: Pyrococcus furiosus encapsulated ferritin domain, residues 1-99, C-terminal StrepII-tagged variant (Pyrococcus furiosus) (UniProt Q8U1L4)

binding [1]: binds
B1: Rhodospirillum rubrum encapsulated ferritin, hexahistidine-tagged variant (protein, UniProt Q2RVS1 1-140)
chain: MAQSSNSTHEPLEVLKEETVNRHRAIVSVMEELEAVDWYDQRVDASTDPELTAILAHNRDEEKEHAAMTLEWLRRNDAKWAEHLRTYLFTEGPITAIEAADTAGEGSGGDAAKGATAQGDGSLGIGSLKGEAALARPPRL

binding [2]: binds
B2: Rhodospirillum rubrum encapsulated ferritin, Strep-tagged variant (protein, UniProt Q2RVS1 1-140)
chain: B1 chain

binding [3]: binds
B3: Pyrococcus furiosus encapsulated ferritin domain, residues 1-99, C-terminal StrepII-tagged variant (domain or fragment, UniProt Q8U1L4 1-99)
chain: MLSINPTLINRDKPYTKEELMEILRLAIIAELDAINLYEQMARYSEDENVRKILLDVAREEKAHVGEFMALLLNLDPEQVTELKGGFEEVKELTGIEAH
